Taken from: PubChem BioAssay AID1259308 (NCATS, 2017)

Screen: 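Candidate targets for better recombinant protein yield in mammalian cells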 (primary screen)
Cell system: human HEK293 embryonic kidney cells stably expressing firefly luciferase (HEK-CMV-Luc2-Hygro)
Knock-down reagent: single siRNA against human genes, 0.8 pmol siRNA per well
Duration: 72 h
Detection: 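Luciferase light (ONE-Glo) measured on one replicate plate set and viability (CellTiter-Glo) on the other, scaled to a negative control siRNA, with robust z-scores and luciferase per cell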
Direction: total luciferase, z-score and total luciferase, % of control: higher = more reporter protein produced; luciferase per cell, z-score: higher = more reporter output per viable cell; viable cells, % of control: higher = more viable cells
Hit rule: 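An siRNA counts as active if its total luciferase robust z-score exceeds 3; genes with two or more such siRNAs out of three were retested with fresh siRNAs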
Meaning of the calls: active = raised luciferase; inactive = no rise
This is an unselected part of about 59,000 reagents. About 1,510 of all reagents (2.6%) count as active. 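Calls use total luciferase alone and ignore viability, so some active siRNAs may act by altering cell number.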 The numbers tell different reagents against one gene apart.

| gene | siRNA no. | total luciferase, z-score | total luciferase, % of control | luciferase per cell, z-score | viable cells, % of control | outcome |
| --- | --- | --- | --- | --- | --- | --- |
| MYBPHL (myosin binding protein H like) | 1 | 0.869 | 99.2 | 0.888 | 87.7 | inactive |
| MYBPHL (myosin binding protein H like) | 2 | -2.33 | 35.6 | -2.65 | 80 | inactive |
| MYBPHL (myosin binding protein H like) | 3 | 0.141 | 84.7 | 0.439 | 84.3 | inactive |
| KCNH3 (potassium voltage-gated channel subfamily H member 3) | 1 | 0.197 | 85.8 | 0.219 | 90.5 | inactive |
| KCNH3 (potassium voltage-gated channel subfamily H member 3) | 2 | 0.103 | 83.9 | 0.166 | 89.8 | inactive |
| KCNH3 (potassium voltage-gated channel subfamily H member 3) | 3 | 0.893 | 99.6 | 2.06 | 64.8 | inactive |
| PTCD1 (pentatricopeptide repeat domain 1) | 1 | -0.0864 | 80.2 | -0.102 | 92 | inactive |
| PTCD1 (pentatricopeptide repeat domain 1) | 2 | 5.04 | 182 | 4.49 | 62.3 | active |
| PTCD1 (pentatricopeptide repeat domain 1) | 3 | -0.033 | 81.2 | 0.324 | 83.3 | inactive |
| NPIPB2 (nuclear pore complex interacting protein family member B2) | 1 | 2.53 | 132 | 2.96 | 67.7 | inactive |
| NPIPB2 (nuclear pore complex interacting protein family member B2) | 2 | -1.05 | 60.9 | -0.776 | 83.5 | inactive |
| NPIPB2 (nuclear pore complex interacting protein family member B2) | 3 | -2.06 | 40.9 | -2.43 | 86.7 | inactive |
| TSPAN16 (tetraspanin 16) | 1 | -1.42 | 53.6 | 0.435 | 53.4 | inactive |
| TSPAN16 (tetraspanin 16) | 2 | -0.534 | 71.3 | -1.05 | 105 | inactive |
| TSPAN16 (tetraspanin 16) | 3 | -0.184 | 78.2 | -0.81 | 108 | inactive |
| HSH2D (hematopoietic SH2 domain containing) | 1 | -1.48 | 52.4 | -1.83 | 94.8 | inactive |
| HSH2D (hematopoietic SH2 domain containing) | 2 | 1.21 | 106 | 0.425 | 106 | inactive |
| HSH2D (hematopoietic SH2 domain containing) | 3 | 0.922 | 100 | 1.03 | 85.3 | inactive |
| TRIOBP (TRIO and F-actin binding protein) | 1 | 1.09 | 104 | 1.25 | 83.4 | inactive |
| TRIOBP (TRIO and F-actin binding protein) | 2 | 0.0497 | 82.9 | -0.0238 | 93.2 | inactive |
| TRIOBP (TRIO and F-actin binding protein) | 3 | 0.381 | 89.5 | 1.82 | 62 | inactive |
| MYDGF (myeloid derived growth factor) | 1 | 2.31 | 128 | 0.783 | 116 | inactive |
| MYDGF (myeloid derived growth factor) | 2 | 2.28 | 127 | 1.84 | 87.4 | inactive |
| MYDGF (myeloid derived growth factor) | 3 | -0.632 | 69.3 | -0.54 | 89.3 | inactive |
| CTSV (cathepsin V) | 1 | 2.03 | 122 | 1.57 | 90.4 | inactive |
| CTSV (cathepsin V) | 2 | -0.703 | 67.9 | -0.355 | 83.3 | inactive |
| CTSV (cathepsin V) | 3 | 0.183 | 85.5 | 0.696 | 79.6 | inactive |
| S100A11P1 (S100A11 pseudogene 1) | 1 | 0.158 | 85 | 0.0613 | 93.5 | inactive |
| S100A11P1 (S100A11 pseudogene 1) | 2 | 1.95 | 121 | 2.15 | 76.5 | inactive |
| S100A11P1 (S100A11 pseudogene 1) | 3 | -1.12 | 59.7 | -1.83 | 108 | inactive |
| C6orf89 (chromosome 6 open reading frame 89) | 1 | -1.2 | 58.1 | -1.21 | 89.2 | inactive |
| C6orf89 (chromosome 6 open reading frame 89) | 2 | -1.31 | 55.8 | 1.31 | 44.1 | inactive |
| C6orf89 (chromosome 6 open reading frame 89) | 3 | 1.48 | 111 | 1.26 | 89.3 | inactive |
| AKR1B15 (aldo-keto reductase family 1 member B15) | 1 | 7.83 | 238 | 4.56 | 80 | active |
| AKR1B15 (aldo-keto reductase family 1 member B15) | 2 | 1.34 | 109 | 1.06 | 91.8 | inactive |
| AKR1B15 (aldo-keto reductase family 1 member B15) | 3 | 0.23 | 86.5 | -0.617 | 114 | inactive |
| STAT5B (signal transducer and activator of transcription 5B) | 1 | 0.546 | 92.7 | 0.491 | 91.1 | inactive |
| STAT5B (signal transducer and activator of transcription 5B) | 2 | -0.212 | 77.7 | -0.455 | 97.8 | inactive |
| STAT5B (signal transducer and activator of transcription 5B) | 3 | 0.193 | 85.7 | -0.254 | 102 | inactive |
| TTPA (alpha tocopherol transfer protein) | 1 | -0.76 | 66.8 | -1.13 | 100 | inactive |
| TTPA (alpha tocopherol transfer protein) | 2 | 0.116 | 84.2 | -0.0156 | 94.5 | inactive |
| TTPA (alpha tocopherol transfer protein) | 3 | -1.08 | 60.5 | -1.33 | 95.9 | inactive |
| TRRAP (transformation/transcription domain associated protein) | 1 | 0.799 | 97.8 | 2.41 | 57.9 | inactive |
| TRRAP (transformation/transcription domain associated protein) | 2 | 1.05 | 103 | 1.7 | 73.5 | inactive |
| TRRAP (transformation/transcription domain associated protein) | 3 | -0.0899 | 80.1 | 1.48 | 60.6 | inactive |
| SPAG9 (sperm associated antigen 9) | 1 | -0.866 | 64.7 | -1.32 | 102 | inactive |
| SPAG9 (sperm associated antigen 9) | 2 | 0.683 | 95.5 | -0.0872 | 109 | inactive |
| SPAG9 (sperm associated antigen 9) | 3 | -1.34 | 55.3 | -0.354 | 67.9 | inactive |

Laid out differently: 8 of the entries above.
{"gene": "AKR1B15 (aldo-keto reductase family 1 member B15)", "siRNA no.": 3, "total luciferase, z-score": 0.23, "total luciferase, % of control": 86.5, "luciferase per cell, z-score": -0.617, "viable cells, % of control": 114, "outcome": "inactive"}
{"gene": "STAT5B (signal transducer and activator of transcription 5B)", "siRNA no.": 1, "total luciferase, z-score": 0.546, "total luciferase, % of control": 92.7, "luciferase per cell, z-score": 0.491, "viable cells, % of control": 91.1, "outcome": "inactive"}
{"gene": "STAT5B (signal transducer and activator of transcription 5B)", "siRNA no.": 2, "total luciferase, z-score": -0.212, "total luciferase, % of control": 77.7, "luciferase per cell, z-score": -0.455, "viable cells, % of control": 97.8, "outcome": "inactive"}
{"gene": "STAT5B (signal transducer and activator of transcription 5B)", "siRNA no.": 3, "total luciferase, z-score": 0.193, "total luciferase, % of control": 85.7, "luciferase per cell, z-score": -0.254, "viable cells, % of control": 102, "outcome": "inactive"}
{"gene": "TTPA (alpha tocopherol transfer protein)", "siRNA no.": 1, "total luciferase, z-score": -0.76, "total luciferase, % of control": 66.8, "luciferase per cell, z-score": -1.13, "viable cells, % of control": 100, "outcome": "inactive"}
{"gene": "TTPA (alpha tocopherol transfer protein)", "siRNA no.": 2, "total luciferase, z-score": 0.116, "total luciferase, % of control": 84.2, "luciferase per cell, z-score": -0.0156, "viable cells, % of control": 94.5, "outcome": "inactive"}
{"gene": "TTPA (alpha tocopherol transfer protein)", "siRNA no.": 3, "total luciferase, z-score": -1.08, "total luciferase, % of control": 60.5, "luciferase per cell, z-score": -1.33, "viable cells, % of control": 95.9, "outcome": "inactive"}
{"gene": "TRRAP (transformation/transcription domain associated protein)", "siRNA no.": 1, "total luciferase, z-score": 0.799, "total luciferase, % of control": 97.8, "luciferase per cell, z-score": 2.41, "viable cells, % of control": 57.9, "outcome": "inactive"}

Continued:
| gene | siRNA no. | total luciferase, z-score | total luciferase, % of control | luciferase per cell, z-score | viable cells, % of control | outcome |
| --- | --- | --- | --- | --- | --- | --- |
| C1QTNF7 (C1q and TNF related 7) | 1 | -0.28 | 76.3 | 0.392 | 76.9 | inactive |
| C1QTNF7 (C1q and TNF related 7) | 2 | -2.92 | 23.8 | -3.14 | 60.8 | inactive |
| C1QTNF7 (C1q and TNF related 7) | 3 | -0.192 | 78.1 | -0.945 | 112 | inactive |
| KMT2E (lysine methyltransferase 2E (inactive)) | 1 | 1.55 | 113 | 0.493 | 111 | inactive |
| KMT2E (lysine methyltransferase 2E (inactive)) | 2 | 0.0146 | 82.2 | -0.233 | 97.6 | inactive |
| KMT2E (lysine methyltransferase 2E (inactive)) | 3 | -0.221 | 77.5 | -0.832 | 108 | inactive |
| SLC16A6 | 1 | 0.57 | 93.2 | 0.253 | 97.5 | inactive |
| SLC16A6 | 2 | 0.35 | 88.8 | -0.218 | 105 | inactive |
| SLC16A6 | 3 | 1.66 | 115 | 0.815 | 104 | inactive |
| UXT (ubiquitously expressed prefoldin like chaperone) | 1 | -0.459 | 72.8 | -0.633 | 96 | inactive |
| UXT (ubiquitously expressed prefoldin like chaperone) | 2 | -0.622 | 69.5 | -0.21 | 82.1 | inactive |
| UXT (ubiquitously expressed prefoldin like chaperone) | 3 | 0.394 | 89.7 | 0.11 | 97.4 | inactive |
| SNAPC1 (small nuclear RNA activating complex polypeptide 1) | 1 | 0.356 | 89 | 0.0571 | 97.9 | inactive |
| SNAPC1 (small nuclear RNA activating complex polypeptide 1) | 2 | -0.126 | 79.4 | -0.247 | 94.7 | inactive |
| SNAPC1 (small nuclear RNA activating complex polypeptide 1) | 3 | -0.28 | 76.3 | -0.893 | 108 | inactive |
| ANKRD2 (ankyrin repeat domain 2) | 1 | -0.241 | 77.1 | -0.754 | 105 | inactive |
| ANKRD2 (ankyrin repeat domain 2) | 2 | 0.451 | 90.9 | 0.418 | 91 | inactive |
| ANKRD2 (ankyrin repeat domain 2) | 3 | 1.43 | 110 | 0.467 | 109 | inactive |
| EEF1G (eukaryotic translation elongation factor 1 gamma) | 1 | 0.276 | 87.4 | 0.257 | 91.3 | inactive |
| EEF1G (eukaryotic translation elongation factor 1 gamma) | 2 | -0.612 | 69.7 | -0.907 | 98.9 | inactive |
| EEF1G (eukaryotic translation elongation factor 1 gamma) | 3 | 1.41 | 110 | 1.2 | 89.5 | inactive |
| ZNF676 (zinc finger protein 676) | 1 | -0.0731 | 80.4 | -0.37 | 99.1 | inactive |
| ZNF676 (zinc finger protein 676) | 2 | -2.34 | 35.4 | -1.1 | 52.8 | inactive |
| ZNF676 (zinc finger protein 676) | 3 | 0.709 | 96 | 0.452 | 95.2 | inactive |
| OGFOD2 | 1 | 0.7 | 95.8 | -0.106 | 110 | inactive |
| OGFOD2 | 2 | 1.63 | 114 | 1.1 | 95.5 | inactive |
| OGFOD2 | 3 | -1.98 | 42.4 | -1.81 | 76.4 | inactive |
